# Primary screen of a compound library

Chains of the proteins cited; added tags and fusions are not shown. Residues count along the entry.
UniProt P9WNZ1, whole entry: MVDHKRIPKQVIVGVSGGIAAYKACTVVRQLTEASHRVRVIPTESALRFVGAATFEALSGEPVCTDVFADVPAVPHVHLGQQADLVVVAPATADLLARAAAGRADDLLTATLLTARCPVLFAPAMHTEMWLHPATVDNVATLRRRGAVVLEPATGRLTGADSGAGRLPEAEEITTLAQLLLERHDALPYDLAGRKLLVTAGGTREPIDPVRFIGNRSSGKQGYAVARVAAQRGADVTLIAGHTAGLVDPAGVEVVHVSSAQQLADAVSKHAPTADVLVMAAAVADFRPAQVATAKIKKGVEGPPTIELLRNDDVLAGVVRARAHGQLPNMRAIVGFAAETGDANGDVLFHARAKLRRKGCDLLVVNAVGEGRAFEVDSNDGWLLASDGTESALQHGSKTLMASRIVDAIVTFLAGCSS
UniProt Q8IDJ8, 1-583: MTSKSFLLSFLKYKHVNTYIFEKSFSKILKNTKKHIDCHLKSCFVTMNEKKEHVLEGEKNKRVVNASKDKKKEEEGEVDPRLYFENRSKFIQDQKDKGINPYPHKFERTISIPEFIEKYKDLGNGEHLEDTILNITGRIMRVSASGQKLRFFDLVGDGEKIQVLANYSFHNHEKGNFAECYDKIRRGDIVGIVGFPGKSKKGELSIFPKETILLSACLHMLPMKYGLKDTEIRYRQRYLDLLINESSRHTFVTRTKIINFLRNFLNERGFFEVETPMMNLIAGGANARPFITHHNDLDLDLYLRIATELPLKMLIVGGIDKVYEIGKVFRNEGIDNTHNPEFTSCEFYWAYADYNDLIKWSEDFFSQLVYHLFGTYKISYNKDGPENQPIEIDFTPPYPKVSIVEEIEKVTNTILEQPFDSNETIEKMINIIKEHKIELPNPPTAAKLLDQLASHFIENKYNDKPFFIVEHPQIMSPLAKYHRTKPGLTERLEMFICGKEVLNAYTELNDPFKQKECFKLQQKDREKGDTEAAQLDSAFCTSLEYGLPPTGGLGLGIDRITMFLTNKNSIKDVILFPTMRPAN
UniProt A4I591, 1-473: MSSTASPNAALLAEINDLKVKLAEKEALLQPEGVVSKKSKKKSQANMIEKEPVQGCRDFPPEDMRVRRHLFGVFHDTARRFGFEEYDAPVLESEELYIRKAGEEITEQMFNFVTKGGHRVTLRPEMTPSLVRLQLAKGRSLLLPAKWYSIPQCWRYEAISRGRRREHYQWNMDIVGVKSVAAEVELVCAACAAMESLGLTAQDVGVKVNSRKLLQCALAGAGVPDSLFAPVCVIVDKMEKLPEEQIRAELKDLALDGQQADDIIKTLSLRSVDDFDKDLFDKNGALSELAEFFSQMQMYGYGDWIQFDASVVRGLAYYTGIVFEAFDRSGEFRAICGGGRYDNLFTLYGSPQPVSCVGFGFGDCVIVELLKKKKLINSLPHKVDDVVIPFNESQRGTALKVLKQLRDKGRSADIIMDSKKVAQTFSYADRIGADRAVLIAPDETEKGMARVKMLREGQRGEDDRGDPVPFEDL

Data taken from ChEMBL document CHEMBL3988442, “University of Dundee, Small-Polar-MMV Screening Library” (2021).

Results are given as percent effect. The controls that fix the scale are not given in the record; negative values are as filed. Compounds were drawn at random from those tested, without regard to their results. A dash means the value is not listed here; it may have been measured.

A: 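Coenzyme A biosynthesis protein CoaBC, Mycobacterium tuberculosis (UniProt P9WNZ1). Enzyme assay of CoaBC with a phosphate dye (Biomol Green) read at 650 nm. Tested at 30 µM. Higher reads as stronger inhibition, judged from the few compounds that gave an IC50. Most strong results did not repeat in a second test. About 67,000 compounds were tested under these conditions; 0.06% (about 40) showed 50% or more at least once.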
B: 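Enzyme assay of the cytosolic lysyl-tRNA synthetase in 384-well plates, read by luminescence. Target: Lysine-tRNA ligase, Plasmodium falciparum 3D7 (UniProt Q8IDJ8). Compounds at 30 µM. Direction is inferred from only a few compounds that gave an IC50; most scored high, so higher reads as stronger inhibition. About 69,000 compounds were tested under these conditions; 0.071% (about 49) showed 50% or more at least once.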
C: 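Enzyme assay of histidyl-tRNA synthetase; the read-out is not stated. Target: Histidine-tRNA ligase, Leishmania infantum (UniProt A4I591). Compounds at 30 µM. The record gives no direction; compounds that gave an IC50 in retests scored well above the rest, so higher reads as stronger inhibition. The assay is labelled LdHisRS but filed under L. infantum. About 69,000 compounds were tested under these conditions; 0.6% (about 410) showed 50% or more at least once.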

structure,A,B,C
CC(C)(C)c1noc(CCC(=O)N2CCN(Cc3ccc(Cl)s3)CC2)n1,-3.353%,-1.121%,14.29%
O=C(CCn1c(C(F)(F)F)cc2cccnc21)N1CCC(O)CC1,2.433%,-0.1306%,9.474%
CC(=O)N1CC[C@H](c2nc3cc(F)ccc3o2)C1,2.554%,14.34%,13.51%
Fc1cc(CN2CCCC2Cn2cncn2)c2ncccc2c1 (centres undefined),4.608%,-1.406%,11.01%
CCOc1cc(CN2CCCC2)ccc1Oc1cccc(C#N)n1,-2.457%,4.901%,12.9%
CC(C)Cc1cc(C(=O)NCC(O)c2ccc(F)cc2)n(C)n1 (centres undefined),-,1.342%,10.83%
O=c1cc(CNCc2ccc3c(c2)OCO3)nc2ccc(Br)cn12,-6.506%,0.389%,-95.6%
COc1ccc(CNC[C@H]2COCc3nc4cc(F)ccc4n32)cc1,7.449%,4.44%,27.78%
CNC(=O)[C@@H](C1CC1)N1CCC[C@H]1C(=O)NCC(C)C,6.095%,6.568%,19.44%
NC(=O)C1CCCN1CCCc1ccc(C(F)(F)F)cc1 (centres undefined),-0.638%,-1.226%,8.333%
COc1ccc(OCCCNCCn2cccn2)cc1,3.69%,-2.899%,-0.8696%
COc1ccccc1CN1CC[C@H]2C[C@H](C(=O)N3CCCC3)O[C@H]2C1,-20.42%,-2.51%,0.885%
CC(C)Cc1noc(CN2CCN(C(=O)c3cccs3)CC2)n1,-2.927%,4.671%,19.2%
CN1CCC(N(C)CCC(=O)N2CCC(CCc3ccccc3)CC2)C1 (centres undefined),13.66%,-0.2323%,40%
Cc1n[nH]c2c1C(c1ccc(F)cc1)SCC(=O)N2 (centres undefined),-1.332%,6.366%,16.3%
N#CC1(NC(=O)c2cc(Cl)ccc2OC(F)F)CCOCC1,3.949%,-1.252%,3.109%
CCOCc1nnc(NCc2cccc(C)c2)o1,9.287%,5.917%,5.714%
Cn1nc(Cn2ccnc2)c2c1CN(C(=O)c1ccoc1)C2,3.09%,-0.1865%,23%
COc1cc(CNCc2ccnc(N3CCOCC3)c2)cc(OC)c1,18.86%,-0.0749%,-8.929%
COCc1ncn2c1CN(S(=O)(=O)Cc1ccc(C)cc1)CC2,4.405%,11.91%,28.77%
CC(CN1CCOCC1)NC(=O)NCCc1ccc(Cl)s1 (centres undefined),3.719%,5.306%,20.54%
CCN(CC)c1ccc(C(=O)N(C)Cc2c(C)noc2C)cn1,3.84%,0.9336%,13.64%
Cn1ccnc1C1c2nc[nH]c2CCN1Cc1cccnc1 (centres undefined),-6.838%,8.475%,8.547%
Cc1ccc(C(=O)N2CCN(C(=O)NC(C)Cn3ccnc3)CC2)o1 (centres undefined),1.596%,4.402%,47.2%
CN1Cc2ccccc2CC2(CCN(CCO)CC2)C1=O,-1.707%,2.267%,-7.547%
CCN1CCn2c(C)cnc2C12CCN(C(=O)CC(C)C)CC2,-0.1269%,2.705%,5.66%
Cc1ccc(Br)c(S(=O)(=O)NCc2cnn(C)c2)c1,-1.489%,3.11%,12.77%
CC(=O)N1CCC(c2cccc(Oc3ccccc3)n2)CC1,3.03%,1.236%,7.092%
COC(=O)C(C)N1CCCc2cc(OC)ccc2C1 (centres undefined),-,2.534%,0.8333%
CS(=O)(=O)N1CC(c2n[nH]c3ncccc23)C1,11%,-3.449%,13.1%
c1coc(CN2CCc3ncnc(C4CCOC4)c3CC2)c1 (centres undefined),3.226%,0.4988%,11.11%
Cc1cnn(CC2CCCN2Cc2c(C)noc2C)c1 (centres undefined),-1.023%,1.428%,9.174%
c1cncc(N2CCOCC3(CCCN(Cc4cccs4)C3)C2)c1 (centres undefined),2.828%,5.297%,27.07%
Cc1ccc(C(=O)N2CCc3ncnc(C)c3CC2)o1,4.912%,2.477%,0%
Cc1nc(CN(C)C(=O)NC(C)c2ccc3c(c2)OCCO3)cs1 (centres undefined),-5.607%,0.3828%,7.965%
Cc1nn(C)c(Cl)c1C(=O)NCC(c1ccsc1)N(C)C (centres undefined),9.512%,0.8651%,-1.124%
CC(C)C(=O)NC1CCCN(C(=O)c2ccc(O)c(Cl)c2)C1 (centres undefined),13.29%,-0.0551%,14.04%
COc1ccc(OC)c(C(=O)N2C[C@H]3CC[C@@H]2CN(C)C3)c1,-2.211%,2.474%,0.7937%
Cc1nccn1-c1cc(CNC(=O)C2CCC(=O)NC2)ccn1 (centres undefined),6.357%,6.792%,16.13%
NC(=O)C1CCN(C(=O)CCCc2nnc(-c3ccccc3)o2)CC1,3.864%,1.701%,5.357%
CC(C)N(Cc1cnn(C)c1)CC1CCCN(S(C)(=O)=O)C1 (centres undefined),6.09%,-0.2616%,11.4%
Cc1ccc(C)c2c(O)cc(CN[C@H]3CCCCNC3=O)nc12,3.672%,17.74%,8.264%
CCc1cc(NCCC(F)(F)F)nc(N2CCOCC2)n1,-,-1.739%,5.833%
CSC(C)C(=O)N1CCN(CC(C)(C)O)CC1 (centres undefined),3.361%,-3.985%,12.82%
N#Cc1ccc(F)c(CN2CCc3sccc3C2)c1,11.24%,6.055%,31.34%
CCn1c(N)nc2cc(C(=O)N(C)Cc3cc(C(C)(C)C)n[nH]3)cnc21,1.901%,6.376%,8.861%
CC(=O)N1CCC2(CCN(CC3CCCCC3)C2)CC1,2.545%,6.998%,21.36%
CCc1c(NCc2ccncc2)cnn1CC(C)C,5.449%,2.364%,12.33%
CC(C)CN1CC(C(=O)NCc2cccnc2-n2cccn2)CC1=O (centres undefined),0.2611%,2.208%,16.81%
CN(C)C(=O)C1CCN(C2CCN(CC3CCC3)CC2)CC1,-0.3636%,5.115%,13.46%
C[C@@H]1CN(C2CCN(c3ccccc3F)CC2)CC[C@]1(C)O,-3.931%,-2.108%,10.32%
CN(C)c1cccc(C(=O)N2CCCC2c2ncc3c(n2)CCNC3)c1 (centres undefined),1.456%,3.619%,24.64%
Cc1cnccc1CN1CC[C@@](C)(O)[C@H](Oc2cccc(F)c2)C1,3.641%,4.971%,15.94%
CC(C)(CO)NC(=O)C1CCC(=O)N(Cc2ccc(Cl)cc2)C1 (centres undefined),2.532%,1.513%,12.5%
CNC(=O)C(C)(C)CNC(=O)Nc1ccc(C)cn1,3.419%,2.77%,6.838%
CCc1nnc(CN(CC)C(=O)C2CC(=O)N(CC)C2)o1 (centres undefined),8.009%,6.694%,8.197%
Cn1nc(Br)c2c(NCCCS(N)(=O)=O)ncnc21,-0.3797%,5.759%,17.5%
Cc1noc(C)c1C(C)C(=O)N1CCCN(Cc2cscn2)CC1 (centres undefined),6.971%,-0.2301%,8.929%
O=C(c1cnccn1)N1C[C@@H]2CCN(c3cnccn3)C[C@@H]2C1,5.419%,5.463%,22%
COc1ccc(OC)c(-c2nc(CN(C)Cc3noc(C)n3)c(C)o2)c1,6.456%,10.25%,18.07%